No constants are given. Whether binding was seen depends on the method and setting. Some binding calls cover weakened binding; strength is not graded here.

Sequences and labels used below:
B1: IscS S10Q, H247P, Q248L variant (enzyme, E. coli)
chain: MKLPIYLDYQATTPVDPRVAEKMMQFMTMDGTFGNPASRSHRFGWQAEEAVDIARNQIADLVGADPREIVFTSGATESDNLAIKGAANFYQKKGKHIITSKTEHKAVLDTCRQLEREGFEVTYLAPQRNGIIDLKELEAAMRDDTILVSIMHVNNEIGVVQDIAAIGEMCRARGIIYHVDATQSVGKLPIDLSQLKVDLMSFSGHKIYGPKGIGALYVRRKPRVRIEAQMHGGGHERGMRSGTLPVPLIVGMGEAYRIAKEEMATEMERLRGLRNRLWNGIKDIEEVYLNGDLEHGAPNILNVSFNYVEGESLIMALKDLAVSSGSACTSASLEPSYVLRALGLNDELAHSSIRFSLGRFTTEEEIDYTIELVRKSIGRLRDLSPLWEMYKQGVDLNSIEWAHH

The assay has as its target B1. The assay can be described thus: SEC.

Take B1: the binding result is “binds weakly”.

Source of the values: paper doi:10.1101/2020.10.06.326603 (bioRxiv, 2020).
